From PubChem BioAssay AID504847 (National Center for Advancing Translational Sciences (NCATS), 2011)
Hit rate of the full screen: of about 400,000 compounds, about 3,700 (0.93%) were called active. Inconclusive results, whose numbers are uncertain, are shown with a selection of clear calls. Calls follow the shape of the dose curve; as a rule, active = well fitted inhibition curve with a large enough effect; inconclusive = small, poorly fitted or top-dose-only effect, or another doubt; inactive = no such curve, though single readings can be large or run the other way. Potencies of inconclusive entries are doubtful fits and often do not repeat.

Amino acid sequences for entries named in this document (tags omitted). A change or cut given only in a name is not applied to a line headed by its entry.
UniProt P11473: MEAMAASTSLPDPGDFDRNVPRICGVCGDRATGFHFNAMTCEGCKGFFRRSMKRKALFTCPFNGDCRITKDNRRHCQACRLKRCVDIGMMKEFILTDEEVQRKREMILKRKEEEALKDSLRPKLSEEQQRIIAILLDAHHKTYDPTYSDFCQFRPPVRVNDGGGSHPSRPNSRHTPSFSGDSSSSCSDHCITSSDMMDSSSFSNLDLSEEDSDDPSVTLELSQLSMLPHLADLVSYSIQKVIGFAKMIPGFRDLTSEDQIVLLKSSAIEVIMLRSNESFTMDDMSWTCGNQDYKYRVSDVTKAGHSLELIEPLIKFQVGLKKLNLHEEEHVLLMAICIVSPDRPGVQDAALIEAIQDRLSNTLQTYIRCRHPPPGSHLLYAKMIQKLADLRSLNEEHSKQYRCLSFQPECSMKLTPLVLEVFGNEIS

Target: Vitamin D3 receptor (Homo sapiens) (UniProt P11473)
Test: Inhibitors of the vitamin D receptor (VDR): qHTS
Details: VDR-SRC2-3 peptide fluorescence polarization, 2 h; max response, negative = inhibition: hits give low values
Summary of the method: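 Fluorescence polarization assay measuring small-molecule disruption of VDR binding to the coregulator peptide SRC2-3. Compounds were pin-transferred (23 nl) into the reagent mix and incubated 2 h at room temperature before reading.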
% is scaled to controls: 0 for no effect and ±100 for the full control effect; potency is read from the fitted curve at half-maximal effect.

SMILES | Potency | max response, negative = inhibition
CC1CCN(CCCCOc2ccccc2F)CC1 | inconclusive: 12.6 µM [inhibitor, partial curve, poor fit] | 
Cc1ccc(C(C)C)cc1OCC(=O)NC1CCCCCCC1 | inconclusive: 89.1 µM [inhibitor, single point] | 
Cn1c(SCc2ccccc2F)nc2c([nH]c3ccccc32)c1=O | inconclusive: 8.91 µM [inhibitor, partial curve, poor fit] | 
Cc1ccc(-n2c(C)cc(/C=C3\NC(=O)NC3=O)c2C)c(C)c1 | inconclusive: 79.4 µM [inhibitor, partial curve, poor fit] | 
CC12CCC=CC1C(c1ccc(C(F)(F)F)cc1)N(Cc1ccccc1)C2=O (stereo not given) |  | inactive: -20.3%
O=C(NCc1ccco1)c1cc2c(s1)CSC2 | inconclusive: 63.1 µM [inhibitor, partial curve, poor fit] | 
COc1ccccc1NC(=O)O/N=C(\N)c1ccccc1 | inconclusive: 14.1 µM [inhibitor, partial curve, poor fit] | 
COc1ccc(Cl)cc1N1C(=O)CN(Cc2cc(OC)c(OC)c(OC)c2)C1=S | inconclusive: 44.7 µM [inhibitor, partial curve, poor fit] | 
COc1ccc(NC(=O)CSc2ncnc3[nH]ncc23)cc1 | inconclusive: 25.1 µM [inhibitor, single point] | 
CC1(C)CC(c2nc(-c3ccc(Br)cc3)cs2)CCS1 (stereo not given) | inconclusive: 31.6 µM [inhibitor, partial curve, poor fit] | 
CCN(CC)C(=O)CSc1nc2ccsc2c(=O)n1CCCC(=O)NCCc1ccc(S(N)(=O)=O)cc1 | inconclusive: 20 µM [inhibitor, partial curve, poor fit] | 
CCOC(=O)c1cc(-c2ccccc2)n(-c2cccc(C(=O)N(C)c3ccc(C)cc3)c2)c1C |  | inactive: 4.11%
O=[N+]([O-])c1cccc(-c2nc3ccc([N+](=O)[O-])cc3[nH]2)c1 | active: 31.6 µM | 
COc1ccc(C2C(C#N)=C(N)Oc3c2c(C)nn3-c2ccccc2)cc1Cn1nc(C)c([N+](=O)[O-])c1C (stereo not given) | inconclusive: 112 µM [inhibitor, partial curve, poor fit] | 
O=C(COC(=O)C1c2ccccc2Oc2ccccc21)NC1CCS(=O)(=O)C1 (stereo not given) | inconclusive: 22.4 µM [inhibitor, single point] | 
C[C@H](CO)N1C[C@H](C)[C@@H](CN(C)C(=O)Nc2ccc(C(F)(F)F)cc2)Oc2c(NC(=O)Nc3ccc4c(c3)OCO4)cccc2C1=O |  | inactive: 0.451%
COC(=O)/C=C1\SC(N2CCOCC2)=C(c2ccc(OC)cc2)C1=O | inconclusive: 89.1 µM [inhibitor, single point] | 
COc1ccc(OC)c(CN2CCN(Cc3cc(OC)c(OC)c(OC)c3)CC2)c1 |  | inactive: 9.77%
Cc1cc(Nc2ccccc2F)n2ncnc2n1 |  | inactive: -5.54%
CCc1nn(CCCC(=O)N2CCN(c3cccc(C)c3C)CC2)c(=O)c2cc3occc3n12 | inconclusive: 100 µM [inhibitor, single point] | 
C[C@@H]1C(=O)O[C@@H]1[C@@H](C)CO[Si](c1ccccc1)(c1ccccc1)C(C)(C)C |  | inactive: 6.56%
CCCCCSc1nncc(=O)[nH]1 |  | inactive: 7.96%

3 entries from above, with each value named.
CCOC(=O)c1cc(-c2ccccc2)n(-c2cccc(C(=O)N(C)c3ccc(C)cc3)c2)c1C
  max response, negative = inhibition: inactive: 4.11%
O=[N+]([O-])c1cccc(-c2nc3ccc([N+](=O)[O-])cc3[nH]2)c1
  Potency: active: 31.6 µM
COc1ccc(C2C(C#N)=C(N)Oc3c2c(C)nn3-c2ccccc2)cc1Cn1nc(C)c([N+](=O)[O-])c1C (stereo not given)
  Potency: inconclusive: 112 µM [inhibitor, partial curve, poor fit]

Continuation:

SMILES | Potency | max response, negative = inhibition
O=C1/C(=C2\C(=O)N(Cc3ccc(F)cc3)c3ccccc32)SC(=S)N1CCS(=O)(=O)O | inconclusive: 63.1 µM [inhibitor, partial curve, poor fit] | 
CN1C(=O)C(C(=O)NC(C)(C)C)C2c3ccccc3OC13CCCCC23 (stereo not given) | inconclusive: 17.8 µM [inhibitor, partial curve, poor fit] | 
CCc1ccc2nc(SCC(=O)N3CC(=O)Nc4ccccc43)c(C#N)cc2c1 | inconclusive: 12.6 µM [inhibitor, full curve] | 
COc1ccc(C(=O)N2CCCC(N3CCN(c4ccccc4F)CC3)C2)c(OC)n1 (stereo not given) | inconclusive: 5.01 µM [inhibitor, full curve, poor fit] | 
COc1ccccc1N(C)S(=O)(=O)c1ccc(C)c(C(=O)Nc2nccs2)c1 |  | inactive: -14.2%
CC1(C)CC(=O)C(C(=O)C2CCN(S(=O)(=O)c3ccccc3)CC2)C(=O)C1 |  | inactive: 6.42%
CC(C(=O)Nc1ccc(N2CCOCC2)cc1)N1C(=O)c2ccccc2C1=O (stereo not given) |  | inactive: 14.4%
Cc1ccc(C)c(CN2CCCNC2=O)c1 |  | inactive: 0.807%
CCn1c(SCC(=O)N2CCCC2)nnc1-c1ccc(N)cc1 |  | inactive: -7.64%
Nc1cc2[nH]c(=O)c3ccccc3c2cc1[N+](=O)[O-] | inconclusive: 50.1 µM [inhibitor, partial curve, poor fit] | 
COc1ccc(CNC(=O)c2nc(S(=O)(=O)Cc3ccccc3)ncc2Cl)cc1 | inconclusive: 25.1 µM [inhibitor, single point] | 
O=C(Nc1ccc2nc3n(c(=O)c2c1)CCCCC3)C(=O)N1CCN(c2ccc(F)cc2)CC1 | inconclusive: 39.8 µM [inhibitor, partial curve, poor fit] | 
Cc1occc1C(=O)Nc1ccc(S(N)(=O)=O)cc1 | inconclusive: 22.4 µM [inhibitor, partial curve, poor fit] | 
Oc1ccc(Br)cc1-c1cc(-c2ccccc2Cl)[nH]n1 | inconclusive: 31.6 µM [inhibitor, single point] | 
c1ccc(Cc2nnc3sc(C4COc5ccccc5O4)nn23)cc1 (stereo not given) | inconclusive: 79.4 µM [inhibitor, partial curve] | 
COc1ccc(CCN2C(=O)c3ccccc3C2(O)c2ncc[nH]2)cc1OC (stereo not given) |  | inactive: -6.22%
O=C(c1ccco1)N1CCC2(CCCN(c3ccccn3)C2)CC1 | inconclusive: 50.1 µM [inhibitor, partial curve, poor fit] | 
O=C(COC(=O)c1n[nH]c2ccccc12)Nc1ccccc1 | inconclusive: 89.1 µM [inhibitor, single point] | 
Cc1cccc(N2C(=O)C=CC2=O)c1 | active: 50.1 µM | 
CCOC(=O)c1c(NC(=O)CN2C(=O)NC3(CCCCC3C)C2=O)sc(C(=O)N(C)C)c1C (stereo not given) |  | inactive: -4.95%
CC(Sc1ccc2nnc(-c3ccc(F)cc3)n2n1)C(=O)O (stereo not given) | inconclusive: 0.891 µM [inhibitor, full curve, poor fit] | 
CCOc1ccc(N=Nc2c(=O)[nH]n3c(C)cc(C)nc23)cc1 |  | inactive: -8.74%

SMILES | Potency | max response, negative = inhibition
Cc1c(S(=O)(=O)O)oc2c1C(=O)C(=O)c1c-2ccc2c1CCCC2(C)C | active: 8.91 µM | 
CC1CCCC(C)N1/N=C/c1ccc(N(C)C)cc1 (stereo not given) |  | inactive: 15.2%
O=C(/C=C/c1ccccc1[N+](=O)[O-])c1ccc(F)cc1 | inconclusive: 12.6 µM [inhibitor, full curve, poor fit] | 
NNC(=O)c1nn(-c2ccc(Cl)cc2)cc1O | inconclusive: 17.8 µM [inhibitor, partial curve] | 
COc1ccc(CN2CC[C@H]3C=CC[C@@H](C(=O)Nc4ccc(Cl)c(C(F)(F)F)c4)[C@H]3C2=O)cc1OC |  | inactive: -1.59%
COc1ccc(CN2CCN(C(=O)c3ccc4c(c3)CCC4)CC2)cc1OC |  | inactive: -19.9%
COC(=O)c1ccc(-c2nc3cc(Cl)c(N)cc3s2)cc1 |  | inactive: 16.4%
N#Cc1c(-c2ccccc2F)cc(C2CC2)nc1SCC(=O)c1cccs1 |  | inactive: -1.89%
CC(C)NC(=O)Nc1ccc2c(c1)CC(=O)N([C@@H](C)CO)C[C@H](C)[C@@H](CN(C)C(=O)NC1CCCCC1)O2 | active: 89.1 µM | 
COc1ccc(C2c3c(-c4cc(Cl)c(C)cc4O)n[nH]c3C(=O)N2Cc2cccnc2)cc1OC (stereo not given) | inconclusive: 79.4 µM [inhibitor, single point] | 
COc1ccc(N(C(=O)c2ccc(C)cc2)S(=O)(=O)c2ccc(Cl)cc2)cc1 | inconclusive: 89.1 µM [inhibitor, single point] | 
O=C(NC1CCCCC1)c1sc(=S)n2c1[nH]c(=O)c1ccccc12 | inconclusive: 79.4 µM [inhibitor, partial curve] | 
O=C(NCC1CCCO1)C(Cc1ccccc1)N1C(=O)C2C3C=CC(C4CC34)C2C1=O (stereo not given) | inconclusive: 25.1 µM [inhibitor, single point] | 
COCCCNC(=O)N1CCN(c2nnc(C)c3c(C)n(-c4ccc(Cl)cc4)nc23)CC1 |  | inactive: 1.95%
CC(=O)Nc1ccc(S(=O)(=O)NCC(CCC(=O)O)C(F)(F)F)cc1 (stereo not given) | inconclusive: 39.8 µM [inhibitor, single point] | 
COc1ccc(-c2ccc(-c3cc(=O)oc4cc(C)cc(C)c34)cc2)cc1 | inconclusive: 79.4 µM [inhibitor, partial curve] | 
COC(=O)[C@@]1(C)[C@H]2C(=O)N(Cc3ccccc3)C(=O)[C@H]2[C@H]2CN=C(SCc3ccc(C#N)cc3)N21 | inconclusive: 79.4 µM [inhibitor, partial curve, poor fit] | 
Cc1ccccc1CN1C(=O)c2ccccc2S(=O)c2ccc(C(=O)NCc3ccccc3)cc21 (stereo not given) |  | inactive: 5.25%
CCc1ccc(-c2cc(C(F)(F)F)n3nc(C(=O)Nc4cnn(Cc5ccccc5C)c4)cc3n2)s1 | inconclusive: 35.5 µM [inhibitor, partial curve, poor fit] | 
COc1ccc(C(=O)/C=C2/C(=O)Nc3ccccc32)c(OC)c1 | active: 35.5 µM | 
O=[N+]([O-])c1ccc(N/N=C/c2ccc(O)c(O)c2O)c(S(=O)(=O)N2CCOCC2)c1 | inconclusive: 22.4 µM [inhibitor, single point] | 
